Experimental data as given in PMC7647994.
Results are given in words; binding and its absence hold for the method and conditions named. For some assays here: In cells and extracts the contact can be indirect. Some results given as binding are weak or reduced against the parent protein; the word gives no strength. For some assays here: Where a sequence is shown, tags or fusion partners need not be part of it.

Sequences of proteins named here, by UniProt entry; tags and fusion partners are left off. Residues count along the entry.
UniProt O76031, residues 57-633: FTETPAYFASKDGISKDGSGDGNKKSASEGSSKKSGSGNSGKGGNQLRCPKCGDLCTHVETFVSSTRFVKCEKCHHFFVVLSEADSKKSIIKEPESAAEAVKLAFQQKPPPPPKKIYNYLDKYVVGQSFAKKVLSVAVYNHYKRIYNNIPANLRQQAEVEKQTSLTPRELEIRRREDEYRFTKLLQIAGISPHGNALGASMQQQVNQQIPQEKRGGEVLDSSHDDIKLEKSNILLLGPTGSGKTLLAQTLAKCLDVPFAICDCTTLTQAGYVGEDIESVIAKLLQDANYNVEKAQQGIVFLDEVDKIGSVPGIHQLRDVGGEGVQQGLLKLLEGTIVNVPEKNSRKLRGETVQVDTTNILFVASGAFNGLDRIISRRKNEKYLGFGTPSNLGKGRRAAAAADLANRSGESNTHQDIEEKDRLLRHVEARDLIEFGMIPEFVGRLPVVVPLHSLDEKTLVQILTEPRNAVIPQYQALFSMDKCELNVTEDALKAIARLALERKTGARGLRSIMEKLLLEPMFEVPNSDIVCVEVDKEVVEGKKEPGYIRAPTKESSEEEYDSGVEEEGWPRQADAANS

B1: Polymerase δ interacting protein of 38 kDa (PDIP38), endogenous (protein, UniProt Q9Y2S7 52-368)
chain: SSRNRPEGKVLETVGVFEVPKQNGKYETGQLFLHSIFGYRGVVLFPWQARLYDRDVASAAPEKAENPAGHGSKEVKGKTHTYYQVLIDARDCPHISQRSQTEAVTFLANHDDSRALYAIPGLDYVSHEDILPYTSTDQVPIQHELFERFLLYDQTKAPPFVARETLRAWQEKNHPWLELSDVHRETTENIRVTVIPFYMGMREAQNSHVYWWRYCIRLENLDSDVVQLRERHWRIFSLSGTLETVRGRGVVGREPVLSKEQPAFQYSSHVSLQASSGHMWGTFRFERPDGSHFDVRIPPFSLESNKDEKTPPSGLHW
B2: GFP-PDIP38 fusion protein, Q9Y2S7 52-368 (protein)
chain: B1 chain

Legend:
[1] = molecular target: CLPX, endogenous (human (endogenous in HeLa)) (UniProt O76031); experiment: co-IP; endogenous proteins from detergent-solubilised HeLa mitochondria; anti-PDIP38 or anti-CLPX antibodies covalently attached to protein A sepharose; IP buffer pH 7.5, 100 mM KCl, 0.5% Triton X-100, 10 mM ATP, 1 h at 4 °C; preimmune serum as control
CLPP (human), Q16740 = experiment: AUC; fluorescence detected sedimentation velocity (FD-AUC); GFP-PDIP38 50 nM, CLPX_(TRAP) 500 nM, CLPP 2.8 µM; 50 mM Tris-HCl pH 8.0, 100 mM KCl, 20 mM MgCl2, 5 mM ATP, 10 °C; both purified; conditions: remark: other sources report otherwise

Binder | binding [1] | binding (CLPP (human), Q16740)
B1 | binds | 
B2 |  | no binding (tested: GFP-PDIP38 50 nM, CLPP 2.8 µM)
